Results are given in words; binding and its absence hold for the method and conditions named. Some results given as binding are weak or reduced against the parent protein; the word gives no strength. Where a sequence is shown, tags or fusion partners need not be part of it.
T1: His-Hth and untagged Exd heterodimers (Drosophila) (UniProt O46339+P40427)
T1 sequence 1: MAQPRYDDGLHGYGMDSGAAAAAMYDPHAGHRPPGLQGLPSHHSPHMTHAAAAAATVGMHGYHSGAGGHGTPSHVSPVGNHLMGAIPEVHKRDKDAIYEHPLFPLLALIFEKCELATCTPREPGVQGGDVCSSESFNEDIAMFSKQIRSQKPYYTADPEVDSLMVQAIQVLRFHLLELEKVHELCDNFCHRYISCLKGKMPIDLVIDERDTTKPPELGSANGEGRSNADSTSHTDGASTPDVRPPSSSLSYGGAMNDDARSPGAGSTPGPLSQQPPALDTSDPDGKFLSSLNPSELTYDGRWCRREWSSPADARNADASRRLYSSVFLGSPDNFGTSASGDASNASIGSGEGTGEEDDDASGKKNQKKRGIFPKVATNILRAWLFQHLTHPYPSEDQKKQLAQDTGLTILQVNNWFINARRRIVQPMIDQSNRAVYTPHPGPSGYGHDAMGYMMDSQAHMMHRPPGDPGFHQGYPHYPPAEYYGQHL
T1 sequence 2: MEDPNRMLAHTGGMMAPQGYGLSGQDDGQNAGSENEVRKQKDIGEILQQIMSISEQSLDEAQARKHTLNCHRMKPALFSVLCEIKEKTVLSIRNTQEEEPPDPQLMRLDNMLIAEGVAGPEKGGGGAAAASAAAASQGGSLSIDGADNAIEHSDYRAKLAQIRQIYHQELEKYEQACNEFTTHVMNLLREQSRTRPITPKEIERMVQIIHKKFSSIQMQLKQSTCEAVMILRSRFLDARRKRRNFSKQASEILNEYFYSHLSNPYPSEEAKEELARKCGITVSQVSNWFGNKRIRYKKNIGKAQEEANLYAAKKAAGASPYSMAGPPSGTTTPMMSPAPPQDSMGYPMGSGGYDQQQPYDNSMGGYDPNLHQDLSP

By UniProt entry, the sequences of proteins in these tests, tags left out.
UniProt P29555: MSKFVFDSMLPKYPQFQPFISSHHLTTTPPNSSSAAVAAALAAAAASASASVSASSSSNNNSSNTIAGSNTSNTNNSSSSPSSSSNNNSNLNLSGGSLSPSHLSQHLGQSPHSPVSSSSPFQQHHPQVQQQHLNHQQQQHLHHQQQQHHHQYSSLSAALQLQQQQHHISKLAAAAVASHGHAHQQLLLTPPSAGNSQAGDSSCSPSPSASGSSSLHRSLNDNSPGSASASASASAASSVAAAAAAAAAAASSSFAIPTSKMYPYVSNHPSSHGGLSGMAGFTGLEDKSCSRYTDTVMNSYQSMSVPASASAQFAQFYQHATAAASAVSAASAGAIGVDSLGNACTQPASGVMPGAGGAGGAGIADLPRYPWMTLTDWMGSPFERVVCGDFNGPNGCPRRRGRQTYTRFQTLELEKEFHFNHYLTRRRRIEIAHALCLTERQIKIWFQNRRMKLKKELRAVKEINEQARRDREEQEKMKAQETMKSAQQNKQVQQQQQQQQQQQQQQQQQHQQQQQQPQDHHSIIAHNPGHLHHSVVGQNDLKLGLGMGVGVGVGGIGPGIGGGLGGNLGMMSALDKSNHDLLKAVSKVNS

T2: Homothorax (Hth), His-tagged (Drosophila) (UniProt O46339)
T2 sequence: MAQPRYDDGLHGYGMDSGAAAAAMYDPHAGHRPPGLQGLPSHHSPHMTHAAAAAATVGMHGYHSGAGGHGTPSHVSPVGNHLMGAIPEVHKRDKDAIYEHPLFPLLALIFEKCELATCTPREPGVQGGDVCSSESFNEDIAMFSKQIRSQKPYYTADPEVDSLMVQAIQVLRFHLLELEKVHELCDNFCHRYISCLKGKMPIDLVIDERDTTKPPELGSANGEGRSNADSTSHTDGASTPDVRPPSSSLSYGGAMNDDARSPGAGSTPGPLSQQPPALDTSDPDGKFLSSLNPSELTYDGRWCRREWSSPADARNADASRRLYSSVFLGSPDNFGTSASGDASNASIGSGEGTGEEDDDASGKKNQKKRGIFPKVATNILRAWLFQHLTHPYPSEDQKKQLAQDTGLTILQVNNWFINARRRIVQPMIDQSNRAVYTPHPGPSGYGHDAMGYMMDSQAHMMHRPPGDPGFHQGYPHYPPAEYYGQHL


How the values were obtained:
[1] = target: T1, His-Hth and untagged Exd heterodimers (Drosophila); assay: native gel or EMSA; purified proteins on IRdye700-labelled DNA probes with the Hox/TALE sites of PntP1OE; native polyacrylamide gel; complexes seen on DNA; equimolar Abd-A and Antp compared; both purified
[2] = target: T2, Homothorax (Hth), His-tagged (Drosophila); assay: co-purification; His-Hth and untagged Exd purified together as heterodimers from BL21 bacterial cells, as previously described

binding [1]	binding [2]	Molecule
binds	–	Abdominal-A (Abd-A) Hox factor, His-tagged (from UniProt P29555 1-590)
–	binds	Extradenticle (Exd), untagged (protein, UniProt P40427 1-376) MEDPNRMLAHTGGMMAPQGYGLSGQDDGQNAGSENEVRKQKDIGEILQQIMSISEQSLDEAQARKHTLNCHRMKPALFSVLCEIKEKTVLSIRNTQEEEPPDPQLMRLDNMLIAEGVAGPEKGGGGAAAASAAAASQGGSLSIDGADNAIEHSDYRAKLAQIRQIYHQELEKYEQACNEFTTHVMNLLREQSRTRPITPKEIERMVQIIHKKFSSIQMQLKQSTCEAVMILRSRFLDARRKRRNFSKQASEILNEYFYSHLSNPYPSEEAKEELARKCGITVSQVSNWFGNKRIRYKKNIGKAQEEANLYAAKKAAGASPYSMAGPPSGTTTPMMSPAPPQDSMGYPMGSGGYDQQQPYDNSMGGYDPNLHQDLSP
